According to the supplement of paper PMC10338343:
± gives the standard deviation. This is a selection; strong and weak results do not stand in their true shares. Many of these values have a large error.

System: MIWI (PIWIL1) piRISC loaded with L1MC piRNA (30 nt)
Assay: pre-steady-state target cleavage rate (min^-1); MIWI and MILI are mouse PIWI proteins and EfPiwi is from a freshwater sponge; tags in brackets are library labels; higher = faster piRNA-guided slicing of the target
Settings: guide: L1MC piRNA 5'p-UAACUAAAUACUAUGCAAGCUGUAGGUCCU
How it was run: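 In Cleave-'n-Seq, a transcribed, DNA-blocked target RNA library (0.1 nM) was combined with 1 nM active affinity-purified piRISC bearing one synthetic guide, with or without 500 nM GTSF1 partner protein. Reactions ran in HEPES–potassium acetate buffer at 33 °C for 0–8 or 0–960 min. Uncleaved targets were sequenced and normalised to depth and to weakly complementary targets, three trials were pooled, and k3 was capped at 0.0001 min^-1. The pre-steady-state cleavage rate was obtained by fitting a burst-and-steady-state model.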

[1] = auxiliary factor: 500 nM mouse GTSF1
[2] = auxiliary factor: none (no GTSF1)

## UCCACCAACAGCUUCCAUAGUAUUUAGUUA
[1]
  pre-steady-state target cleavage rate: 0.0426 ± 0.015
[2]
  pre-steady-state target cleavage rate: 0.00399 ± 0.0017

## AGGACCUACAGCUGGCAUAGUAUUUAGUUA
[1]
  pre-steady-state target cleavage rate: 1.29 ± 0.057
[2]
  pre-steady-state target cleavage rate: 0.0579 ± 0.011

## UCGACCUACAGGUUGCAUAGUAUUUACUUA
[1]
  pre-steady-state target cleavage rate: 0.296 ± 0.04
[2]
  pre-steady-state target cleavage rate: 0.025 ± 0.0051

## UGCUGCUACAGCUUGCAUAGUAUUUAGUUA
[1]
  pre-steady-state target cleavage rate: 1.55 ± 0.058
[2]
  pre-steady-state target cleavage rate: 0.0595 ± 0.011

## UCGACCUACAGCUUGCAAAGUAUUUACAAA
[1]
  pre-steady-state target cleavage rate: 0.33 ± 0.035
[2]
  pre-steady-state target cleavage rate: 0.00465 ± 0.002

## UCGAGCUACAGCUUGCAUAGUAUUUAGAUA
[1]
  pre-steady-state target cleavage rate: 0.443 ± 0.041
[2]
  pre-steady-state target cleavage rate: 0.0206 ± 0.0046

## UGGACCAACAGCUUGCAUAGUAUUUACUUA
[1]
  pre-steady-state target cleavage rate: 0.299 ± 0.018
[2]
  pre-steady-state target cleavage rate: 0.0367 ± 0.0063

## UGGACAUACAGCUUGCAUAGUAUUUAGUUA
[1]
  pre-steady-state target cleavage rate: 1.23 ± 0.05
[2]
  pre-steady-state target cleavage rate: 0.0916 ± 0.014

## AGGACCUGCAGCUUGCAUAGUAUUUAGUUA
[1]
  pre-steady-state target cleavage rate: 1.38 ± 0.088
[2]
  pre-steady-state target cleavage rate: 0.0689 ± 0.014

## UGGAUCUACAGCUUGCAUAGUAUUUAGUUA
[1]
  pre-steady-state target cleavage rate: 1.57 ± 0.062
[2]
  pre-steady-state target cleavage rate: 0.0958 ± 0.019

## UGGACCAACAGCUUCCAUAGUAUUUAGUUA
[1]
  pre-steady-state target cleavage rate: 0.0364 ± 0.0068
[2]
  pre-steady-state target cleavage rate: 0.00383 ± 0.0016

## UCCUGGAUCAGCUUGCUAGUAUUUAGUUA
[1]
  pre-steady-state target cleavage rate: 0.00354 ± 0.004
[2]
  pre-steady-state target cleavage rate: 0.00166 ± 0.0033

## AGGACCUACAACUUGCAUAGUAUUUAGUUA
[1]
  pre-steady-state target cleavage rate: 1.08 ± 0.031
[2]
  pre-steady-state target cleavage rate: 0.0712 ± 0.011

## ACCUCCUACAGCUUGCAUAGUAUUUAGUAA
[1]
  pre-steady-state target cleavage rate: 0.85 ± 0.046
[2]
  pre-steady-state target cleavage rate: 0.0351 ± 0.0072

## AGGACCUACUGCUUGCAUAGUAUUUAGUAA
[1]
  pre-steady-state target cleavage rate: 0.861 ± 0.077
[2]
  pre-steady-state target cleavage rate: 0.0651 ± 0.012

## AGGACCUUCAGCUUGGAUAGUAUUUAGUUA
[1]
  pre-steady-state target cleavage rate: 1.48 ± 0.052
[2]
  pre-steady-state target cleavage rate: 0.0657 ± 0.012

## UCGACCAACAGCUUGCAUAGUAUUUAGUUA
[1]
  pre-steady-state target cleavage rate: 1.62 ± 0.054
[2]
  pre-steady-state target cleavage rate: 0.0825 ± 0.014

## UCGUCCUACUGCUUGCAUAGUAUUUAGUUA
[1]
  pre-steady-state target cleavage rate: 1.14 ± 0.048
[2]
  pre-steady-state target cleavage rate: 0.0572 ± 0.0094

## UCCACCUAGCAGCUUGCAUAGUAUUUAGUUA
[1]
  pre-steady-state target cleavage rate: 0.833 ± 0.057
[2]
  pre-steady-state target cleavage rate: 0.0454 ± 0.0087

## AGGAGCUACAGCUUGGAUAGUAUUUAGUUA
[1]
  pre-steady-state target cleavage rate: 1.17 ± 0.081
[2]
  pre-steady-state target cleavage rate: 0.0558 ± 0.0094

## AGGACCUACCAGCUUGCAUAGUAUUUAGUUA
[1]
  pre-steady-state target cleavage rate: 1.17 ± 0.069
[2]
  pre-steady-state target cleavage rate: 0.0704 ± 0.014

## UCCUGGAUGUCCUUACAUAGUAUUUAGUUA
[1]
  pre-steady-state target cleavage rate: 0.0237 ± 0.0056
[2]
  pre-steady-state target cleavage rate: 0.0041 ± 0.0017

## AGGCCCUACAGCUUGCAUAGUAUUUAGUUA
[1]
  pre-steady-state target cleavage rate: 1.15 ± 0.058
[2]
  pre-steady-state target cleavage rate: 0.115 ± 0.018

## UCCACCUACAGCUUGCAUAGUAUAUACAAA
[1]
  pre-steady-state target cleavage rate: 0.413 ± 0.089
[2]
  pre-steady-state target cleavage rate: 0.0012 ± 0.0069

## UCCUCCUACAGCUUGAUAGUAUUUAGUUA
[1]
  pre-steady-state target cleavage rate: 0.824 ± 0.05
[2]
  pre-steady-state target cleavage rate: 0.00583 ± 0.0021

## AGCACGUACAGCUUGCAUAGUAUUUAGUUA
[1]
  pre-steady-state target cleavage rate: 1.28 ± 0.043
[2]
  pre-steady-state target cleavage rate: 0.064 ± 0.011

## AGGACCUACAGCUUGGCAUAGUAUUUAGUUA
[1]
  pre-steady-state target cleavage rate: 1.17 ± 0.17
[2]
  pre-steady-state target cleavage rate: 0.0407 ± 0.0099

## AGGACCUACACCUUGCAUAGUAUUUAGUUA
[1]
  pre-steady-state target cleavage rate: 1.17 ± 0.037
[2]
  pre-steady-state target cleavage rate: 0.0855 ± 0.015

## UCGACCUACGGCUUGCAUAGUAUUUAGUUA
[1]
  pre-steady-state target cleavage rate: 1.35 ± 0.053
[2]
  pre-steady-state target cleavage rate: 0.069 ± 0.011

## UCCUGGAUGUCGAAACAUAGUAUUUAGUUA
[1]
  pre-steady-state target cleavage rate: 0.0036 ± 0.0041
[2]
  pre-steady-state target cleavage rate: 0.00062 ± 0.013

## UCCACGAUCAGCUUGCAUAGUAUUUAGUUA
[1]
  pre-steady-state target cleavage rate: 1.55 ± 0.058
[2]
  pre-steady-state target cleavage rate: 0.0711 ± 0.013

## UCGACCUACACGCUUGCAUAGUAUUUAGUUA
[1]
  pre-steady-state target cleavage rate: 1.23 ± 0.063
[2]
  pre-steady-state target cleavage rate: 0.0454 ± 0.0074

## AGGACCUACAGCUUGCAUAGUAGUUUAGUUA
[1]
  pre-steady-state target cleavage rate: 0.47 ± 0.036
[2]
  pre-steady-state target cleavage rate: 0.0209 ± 0.006

## UCCAUCCUACAGCUUGCAUAGUAUUUAGUUA
[1]
  pre-steady-state target cleavage rate: 0.558 ± 0.029
[2]
  pre-steady-state target cleavage rate: 0.0561 ± 0.0096

## UGGACCUCCAGCUUGCAUAGUAUUUAGUUA
[1]
  pre-steady-state target cleavage rate: 1.39 ± 0.054
[2]
  pre-steady-state target cleavage rate: 0.08 ± 0.014

## UCCUGGAUGUCGAACGUUAGUUUUAAGUUA
[1]
  pre-steady-state target cleavage rate: 0.000319 ± 0.013
[2]
  pre-steady-state target cleavage rate: 0.000351 ± 0.012

## UCCUGGUACAGCUUGCAUAGCUAUUUAGUUA
[1]
  pre-steady-state target cleavage rate: 0.0034 ± 0.0042
[2]
  pre-steady-state target cleavage rate: 0.00129 ± 0.0068

## UCGACCUACAGCAUGCAUAGUAUUUAGUAA
[1]
  pre-steady-state target cleavage rate: 0.99 ± 0.072
[2]
  pre-steady-state target cleavage rate: 0.0189 ± 0.0064

## UGGAGCUACAGCAUGCAUAGUAUUUAGUUA
[1]
  pre-steady-state target cleavage rate: 1.14 ± 0.042
[2]
  pre-steady-state target cleavage rate: 0.0429 ± 0.0078

## AGGAACUACAGCUUGCAUAGUAUUUAGUUA
[1]
  pre-steady-state target cleavage rate: 1.3 ± 0.041
[2]
  pre-steady-state target cleavage rate: 0.0918 ± 0.016

## UCGACCUACAGCGUGCAUAGUAUUUAGUUA
[1]
  pre-steady-state target cleavage rate: 1.73 ± 0.072
[2]
  pre-steady-state target cleavage rate: 0.0576 ± 0.0085

## UGGACGUACUGCUUGCAUAGUAUUUAGUUA
[1]
  pre-steady-state target cleavage rate: 1.01 ± 0.051
[2]
  pre-steady-state target cleavage rate: 0.056 ± 0.0091

## UCCUGGAUCAGCUUGGUUAGUAUUUUCAAA
[1]
  pre-steady-state target cleavage rate: 0.00103 ± 0.011
[2]
  pre-steady-state target cleavage rate: 0.000558 ± 0.014

## AGGACCUACAGCUAGCAUAGUAUUUAGUUA
[1]
  pre-steady-state target cleavage rate: 1.16 ± 0.061
[2]
  pre-steady-state target cleavage rate: 0.0412 ± 0.0085

## UCCUGGAUGUCGAUGCAUUGUUUUUAGUUA
[1]
  pre-steady-state target cleavage rate: 0.000223 ± 0.037
[2]
  pre-steady-state target cleavage rate: 0.000432 ± 0.013

## AGGACCUACACGCUUGCAUAGUAUUUAGUUA
[1]
  pre-steady-state target cleavage rate: 1.1 ± 0.065
[2]
  pre-steady-state target cleavage rate: 0.0703 ± 0.01

## UCCACCUACAGCUUGCAUUCAAUUUAGUUA
[1]
  pre-steady-state target cleavage rate: 0.0179 ± 0.0084
[2]
  pre-steady-state target cleavage rate: 0.00107 ± 0.0055

## UGGACCUACAGCUUGACAUAGUAUUUAGUUA
[1]
  pre-steady-state target cleavage rate: 0.986 ± 0.1
[2]
  pre-steady-state target cleavage rate: 0.00706 ± 0.0031

## ACCACCUACAGCUUGCAUAGUAUUUAGUUA
[1]
  pre-steady-state target cleavage rate: 1.16 ± 0.056
[2]
  pre-steady-state target cleavage rate: 0.0927 ± 0.017

## UCCUCCUUCAGCUAGCAUAGUAUUUAGUUA
[1]
  pre-steady-state target cleavage rate: 0.78 ± 0.032
[2]
  pre-steady-state target cleavage rate: 0.0147 ± 0.0034

## UCCUGGAUCAGCUUCCAUAGUAUUUACAAA
[1]
  pre-steady-state target cleavage rate: 0.00432 ± 0.0056
[2]
  pre-steady-state target cleavage rate: 0.000736 ± 0.0097

## UCGACGUUCAGCUUGCAUAGUAUUUAGUUA
[1]
  pre-steady-state target cleavage rate: 1.3 ± 0.036
[2]
  pre-steady-state target cleavage rate: 0.0748 ± 0.015

## UCCACGUACAGCUUGCAUAGAAUUUAGUUA
[1]
  pre-steady-state target cleavage rate: 0.412 ± 0.022
[2]
  pre-steady-state target cleavage rate: 0.0297 ± 0.0084

## AGGAGCUACAGCUAGCAUAGUAUUUAGUUA
[1]
  pre-steady-state target cleavage rate: 1.28 ± 0.076
[2]
  pre-steady-state target cleavage rate: 0.0359 ± 0.0079

## AGGACGUACAGCUUGCAUAGUAUUUAGAAA
[1]
  pre-steady-state target cleavage rate: 0.432 ± 0.06
[2]
  pre-steady-state target cleavage rate: 0.0172 ± 0.0052

## UCCUGGAUGUCCUUGCUAGUAUUUAGUUA
[1]
  pre-steady-state target cleavage rate: 0.00298 ± 0.0047
[2]
  pre-steady-state target cleavage rate: 0.00105 ± 0.0052

## CGGACCUACAGCUUGCAUAGUAUUUAGUUA
[1]
  pre-steady-state target cleavage rate: 0.743 ± 0.028
[2]
  pre-steady-state target cleavage rate: 0.06 ± 0.0088

## AGGACCUACAGCUUGCAUGUAUUUAGUUA
[1]
  pre-steady-state target cleavage rate: 0.485 ± 0.048
[2]
  pre-steady-state target cleavage rate: 0.00718 ± 0.0034

## AGGACACUACAGCUUGCAUAGUAUUUAGUUA
[1]
  pre-steady-state target cleavage rate: 1.13 ± 0.083
[2]
  pre-steady-state target cleavage rate: 0.0749 ± 0.011

## UCCACCUACAGCUCUGCAUAGUAUUUAGUUA
[1]
  pre-steady-state target cleavage rate: 0.862 ± 0.063
[2]
  pre-steady-state target cleavage rate: 0.0214 ± 0.0048
